{"source": "patent US20250057893A1", "about": "“PHARMACEUTICAL COMPOSITION FOR PREVENTING OR TREATING CANCER OR INFLAMMATORY DISEASE” (ENTEROBIOME INC., priority 2021, published 2025)", "note": "The amount applied is not stated for every result."}
{"system": "Akkermansia muciniphila ATCC BAA-835", "assay": "Utilization of carbohydrates (API50CH kit), type strain", "type": "cell-based", "design": "key: +: growth; w: weak growth; −: no growth", "conditions": "type strain ATCC BAA-835"}
{"compound": "N#C[C@H](O[C@@H]1O[C@H](CO[C@@H]2O[C@H](CO)[C@@H](O)[C@H](O)[C@H]2O)[C@@H](O)[C@H](O)[C@H]1O)c1ccccc1", "note": "[Amygdaline]", "Growth using the carbohydrate, ATCC BAA-835": "−"}
{"compound": "O=c1ccc2cc(O[C@@H]3O[C@H](CO)[C@@H](O)[C@H](O)[C@H]3O)c(O)cc2o1", "note": "[Esculine]", "Growth using the carbohydrate, ATCC BAA-835": "−"}
{"compound": "CCN1C[C@]2(COC(=O)c3ccccc3N)CC[C@H](OC)[C@]34C5C[C@@H]6[C@@H](OC)C[C@@](O)(C5[C@H]6OC)[C@@](O)(C13)[C@@H](OC)C24", "note": "(some centres unmarked) [Inuline]", "Growth using the carbohydrate, ATCC BAA-835": "−"}
{"compound": "O=C([O-])[C@H](O)[C@@H](O)[C@H](O)[C@H](O)CO.[K+]", "note": "[Potassium Gluconate]", "Growth using the carbohydrate, ATCC BAA-835": "−"}
{"compound": "Amidon [Amidon (starch)]", "Growth using the carbohydrate, ATCC BAA-835": "−"}
